Source: paper PMC7570020, “The PIFs Redundantly Control Plant Defense Response against Botrytis cinerea in Arabidopsis”

Target: T1, GST-PIF4 bHLH (Arabidopsis thaliana) (UniProt Q8W2F3)
T1 sequence (looked up, limits assumed): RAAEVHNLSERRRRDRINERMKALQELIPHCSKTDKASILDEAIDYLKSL
Test: EMSA
Conditions: Chemiluminescent EMSA Kit (Beyotime), manufacturer's protocol; pH and temperature not stated; recombinant protein; protein details: N-terminal GST (pGEX); label: 5' biotin

“GAGCCAAAAACTTTGAATGACCTCGGGATATCAAATAATCA (double strand) [ERF1 mutant probe]”: no binding.

For at least one entry, the source does not settle the construct or the ends of the probe. A negative result means that nothing was seen under these conditions. At least one verdict was read from the data and is not stated in words by the source. Where a protein sequence is shown, tags need not be part of it.
